Data as given in PubChem BioAssay AID1259308 (NCATS, 2017).
This is a random part of about 59,000 reagents. About 1,510 of all reagents (2.6%) were called active. 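Calls use total luciferase alone and ignore viability, so some active siRNAs may act by altering cell number.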 Unmarked entries are inactive. Reagents against one gene are numbered here. Not all columns of the deposit are shown. No sequences are given here.

- Assay: 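Genes whose loss raises luciferase production in HEK293 cells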 (primary screen)
- Cell system: human HEK293 embryonic kidney cells stably expressing firefly luciferase (HEK-CMV-Luc2-Hygro)
- Knock-down reagent: single siRNA against human genes, 0.8 pmol siRNA per well
- Timing: 72 h
- Read-out: 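Reporter luminescence and viable-cell signal on separate replicate plates, given as percent of non-targeting control and median/MAD z-scores, plus per-cell luciferase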
- Scale: total luciferase, z-score: higher = more reporter protein produced
- Rule for the call: 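Active when the median/MAD z-score for overall luciferase is greater than 3; a gene was taken forward for validation with new siRNAs if at least two of its three siRNAs passed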
- Calls: active = raised luciferase; inactive = no rise

total luciferase, z-score, by gene and reagent
BIVM: #1 -1.24; #2 -0.923; #3 0.324
GJC2: #1 -1.23; #2 0.936; #3 -1.12
GIMAP6: #1 1.1; #2 0.0236; #3 -1.92
CDKN2A: #1 -0.317; #2 -1.19; #3 -0.152
RPL14: #1 -2.85; #2 -2.82; #3 -2.24
ZBED4: #1 0.12; #2 1.4; #3 0.31
AJAP1: #1 0.606; #2 -1.6; #3 -0.0935
PDCD5: #1 -1.25; #2 -0.0794; #3 -0.273
CHRNA1: #1 1.7; #2 2.57; #3 -2.31
VAMP4: #1 -0.423; #2 -1.7; #3 -0.825

Targets above whose target name begins with B or b (3):
total luciferase, z-score, by gene and reagent
BIVM: #1 -1.24; #2 -0.923; #3 0.324

The results go on.
total luciferase, z-score, by gene and reagent
SLC2A12: #1 1.05; #2 -0.353; #3 0.368
MRPS2: #1 -0.0394; #2 0.0211; #3 -1.94
CCAR1: #1 0.475; #2 -0.278; #3 -1.29
ADM5: #1 -1.32; #2 0.747; #3 0.0623
RCC2: #1 -0.354; #2 0.229; #3 -0.233
LAMA3: #1 -0.16; #2 -1.38; #3 2.8
BRD4: #1 3.24 (active); #2 -0.642; #3 1.01
OR2A25: #1 0.0437; #2 -0.454; #3 1.18
PPP2CB: #1 1.55; #2 0.821; #3 0.477
GRM5P1: #1 -0.206; #2 -0.0379; #3 2.03
DCBLD1: #1 -0.267; #2 2.22; #3 -0.0519
ESR1: #1 0.157; #2 1.66; #3 -0.816
MON1A: #1 -1.13; #2 -0.573; #3 0.98
ENO2: #1 -0.203; #2 -1.42; #3 -2.11
CHMP2A: #1 0.489; #2 -1.09; #3 1.43
